From the supplement of paper PMC10849652
Some of the results follow.

The chains behind the UniProt entries cited, without tags or fusion partners. Where a name states a change or a piece, a line headed by the entry shows the natural chain unless it says otherwise.
UniProt Q9GZZ1: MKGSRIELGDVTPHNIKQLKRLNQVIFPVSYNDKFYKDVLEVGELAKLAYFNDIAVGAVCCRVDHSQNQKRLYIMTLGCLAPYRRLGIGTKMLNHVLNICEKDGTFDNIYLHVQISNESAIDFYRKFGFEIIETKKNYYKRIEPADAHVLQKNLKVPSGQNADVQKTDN
UniProt Q147X3: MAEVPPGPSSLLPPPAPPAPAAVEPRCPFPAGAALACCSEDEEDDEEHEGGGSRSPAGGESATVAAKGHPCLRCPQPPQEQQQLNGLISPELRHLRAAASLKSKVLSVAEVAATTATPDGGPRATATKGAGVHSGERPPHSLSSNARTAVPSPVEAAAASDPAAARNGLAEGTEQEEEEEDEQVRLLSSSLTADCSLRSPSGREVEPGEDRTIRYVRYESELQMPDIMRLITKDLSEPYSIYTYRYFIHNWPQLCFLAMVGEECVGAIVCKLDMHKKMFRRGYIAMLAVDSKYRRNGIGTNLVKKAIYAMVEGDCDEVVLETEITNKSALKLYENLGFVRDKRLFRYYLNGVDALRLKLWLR
UniProt P54920: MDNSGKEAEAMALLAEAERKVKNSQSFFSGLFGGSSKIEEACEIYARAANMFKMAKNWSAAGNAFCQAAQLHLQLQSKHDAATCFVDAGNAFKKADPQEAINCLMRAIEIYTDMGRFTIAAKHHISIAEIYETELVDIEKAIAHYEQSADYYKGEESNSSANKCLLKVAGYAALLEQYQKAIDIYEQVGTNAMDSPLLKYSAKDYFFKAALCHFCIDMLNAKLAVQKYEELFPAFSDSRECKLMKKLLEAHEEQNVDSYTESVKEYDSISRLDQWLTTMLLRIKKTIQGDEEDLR
UniProt P54802: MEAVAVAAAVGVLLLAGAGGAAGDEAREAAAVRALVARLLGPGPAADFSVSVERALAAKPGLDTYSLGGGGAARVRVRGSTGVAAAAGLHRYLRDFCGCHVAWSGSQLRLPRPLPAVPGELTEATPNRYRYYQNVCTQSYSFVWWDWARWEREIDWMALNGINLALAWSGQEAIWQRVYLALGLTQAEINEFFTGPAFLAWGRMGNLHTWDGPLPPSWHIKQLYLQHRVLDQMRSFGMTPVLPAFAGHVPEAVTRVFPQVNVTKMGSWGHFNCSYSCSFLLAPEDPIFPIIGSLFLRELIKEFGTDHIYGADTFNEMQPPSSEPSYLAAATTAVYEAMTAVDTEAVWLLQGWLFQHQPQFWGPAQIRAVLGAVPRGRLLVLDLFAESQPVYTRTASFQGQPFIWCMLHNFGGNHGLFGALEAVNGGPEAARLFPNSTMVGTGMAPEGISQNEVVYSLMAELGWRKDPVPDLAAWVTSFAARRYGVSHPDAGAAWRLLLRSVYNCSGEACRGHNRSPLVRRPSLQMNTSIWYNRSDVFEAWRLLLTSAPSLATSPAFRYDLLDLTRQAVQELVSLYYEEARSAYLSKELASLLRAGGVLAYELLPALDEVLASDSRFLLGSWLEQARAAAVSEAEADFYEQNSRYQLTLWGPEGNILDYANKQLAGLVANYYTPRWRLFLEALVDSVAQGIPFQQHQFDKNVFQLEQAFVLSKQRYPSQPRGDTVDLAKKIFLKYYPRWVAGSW
UniProt Q9UM54, whole entry, looked up: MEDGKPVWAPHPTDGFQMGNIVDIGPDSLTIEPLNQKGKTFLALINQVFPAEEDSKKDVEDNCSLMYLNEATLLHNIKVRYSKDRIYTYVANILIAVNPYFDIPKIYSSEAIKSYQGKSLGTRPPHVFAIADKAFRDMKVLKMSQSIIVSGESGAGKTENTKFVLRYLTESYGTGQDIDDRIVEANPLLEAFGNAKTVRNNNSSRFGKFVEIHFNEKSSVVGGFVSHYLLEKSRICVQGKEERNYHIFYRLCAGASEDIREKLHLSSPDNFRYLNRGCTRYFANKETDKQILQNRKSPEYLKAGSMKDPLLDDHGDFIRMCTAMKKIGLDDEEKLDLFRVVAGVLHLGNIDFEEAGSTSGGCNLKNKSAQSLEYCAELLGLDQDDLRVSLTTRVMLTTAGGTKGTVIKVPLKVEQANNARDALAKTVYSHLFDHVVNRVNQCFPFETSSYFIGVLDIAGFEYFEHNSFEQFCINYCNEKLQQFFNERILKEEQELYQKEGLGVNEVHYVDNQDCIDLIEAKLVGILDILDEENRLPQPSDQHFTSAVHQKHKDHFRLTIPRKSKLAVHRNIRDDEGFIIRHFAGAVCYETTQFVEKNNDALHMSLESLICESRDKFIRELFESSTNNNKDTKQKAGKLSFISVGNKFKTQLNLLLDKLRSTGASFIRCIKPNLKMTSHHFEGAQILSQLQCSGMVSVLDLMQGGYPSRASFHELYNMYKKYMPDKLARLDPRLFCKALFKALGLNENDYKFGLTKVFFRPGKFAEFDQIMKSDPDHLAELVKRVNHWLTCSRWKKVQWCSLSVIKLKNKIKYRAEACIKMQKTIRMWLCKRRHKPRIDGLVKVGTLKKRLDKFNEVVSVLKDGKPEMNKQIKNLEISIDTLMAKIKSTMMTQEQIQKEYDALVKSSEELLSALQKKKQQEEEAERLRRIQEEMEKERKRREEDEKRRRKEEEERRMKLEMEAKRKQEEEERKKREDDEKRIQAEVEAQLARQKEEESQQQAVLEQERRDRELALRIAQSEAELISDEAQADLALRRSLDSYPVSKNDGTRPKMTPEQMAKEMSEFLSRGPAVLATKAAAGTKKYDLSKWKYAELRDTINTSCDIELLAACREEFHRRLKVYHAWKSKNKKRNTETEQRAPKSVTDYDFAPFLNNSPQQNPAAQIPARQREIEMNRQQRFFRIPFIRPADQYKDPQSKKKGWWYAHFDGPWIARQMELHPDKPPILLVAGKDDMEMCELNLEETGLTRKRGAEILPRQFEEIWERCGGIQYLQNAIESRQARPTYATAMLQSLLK
UniProt Q9BQG0: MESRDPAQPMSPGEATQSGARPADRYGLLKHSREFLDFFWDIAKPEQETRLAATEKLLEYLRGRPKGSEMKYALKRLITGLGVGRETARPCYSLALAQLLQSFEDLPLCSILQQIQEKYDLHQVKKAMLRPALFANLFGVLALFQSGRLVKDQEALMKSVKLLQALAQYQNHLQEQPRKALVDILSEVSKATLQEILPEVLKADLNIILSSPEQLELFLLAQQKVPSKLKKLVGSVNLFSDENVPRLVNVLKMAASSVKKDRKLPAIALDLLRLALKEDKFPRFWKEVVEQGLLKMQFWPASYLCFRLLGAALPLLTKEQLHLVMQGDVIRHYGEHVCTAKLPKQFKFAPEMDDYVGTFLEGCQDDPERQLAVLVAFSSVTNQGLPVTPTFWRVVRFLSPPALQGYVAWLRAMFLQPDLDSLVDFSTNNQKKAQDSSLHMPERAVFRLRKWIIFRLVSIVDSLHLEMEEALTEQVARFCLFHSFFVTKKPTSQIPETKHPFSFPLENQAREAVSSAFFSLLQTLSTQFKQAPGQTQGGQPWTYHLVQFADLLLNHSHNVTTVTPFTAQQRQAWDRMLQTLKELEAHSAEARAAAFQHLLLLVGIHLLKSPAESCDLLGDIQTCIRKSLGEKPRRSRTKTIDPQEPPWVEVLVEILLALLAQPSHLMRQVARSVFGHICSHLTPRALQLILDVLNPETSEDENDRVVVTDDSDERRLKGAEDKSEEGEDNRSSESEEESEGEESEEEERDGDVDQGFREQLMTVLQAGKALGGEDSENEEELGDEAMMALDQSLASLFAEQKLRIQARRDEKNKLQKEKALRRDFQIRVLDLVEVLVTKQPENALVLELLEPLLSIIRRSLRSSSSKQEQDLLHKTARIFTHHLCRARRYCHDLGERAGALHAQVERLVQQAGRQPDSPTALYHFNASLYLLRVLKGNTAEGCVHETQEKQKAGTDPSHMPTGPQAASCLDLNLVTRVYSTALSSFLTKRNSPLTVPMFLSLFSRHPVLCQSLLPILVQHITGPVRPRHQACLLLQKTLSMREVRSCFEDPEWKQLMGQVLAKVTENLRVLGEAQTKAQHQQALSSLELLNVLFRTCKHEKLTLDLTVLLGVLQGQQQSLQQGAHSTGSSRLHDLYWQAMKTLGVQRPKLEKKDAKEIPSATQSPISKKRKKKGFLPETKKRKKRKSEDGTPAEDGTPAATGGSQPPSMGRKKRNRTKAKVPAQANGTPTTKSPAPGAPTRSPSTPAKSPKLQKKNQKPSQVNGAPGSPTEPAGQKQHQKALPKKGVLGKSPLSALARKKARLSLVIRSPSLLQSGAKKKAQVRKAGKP
UniProt Q96NT1: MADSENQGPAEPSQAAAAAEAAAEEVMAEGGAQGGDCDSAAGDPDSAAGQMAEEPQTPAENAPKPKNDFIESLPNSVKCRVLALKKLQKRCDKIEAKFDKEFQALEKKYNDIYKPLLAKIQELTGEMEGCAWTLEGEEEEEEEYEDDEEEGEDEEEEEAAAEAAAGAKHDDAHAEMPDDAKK
UniProt O60934: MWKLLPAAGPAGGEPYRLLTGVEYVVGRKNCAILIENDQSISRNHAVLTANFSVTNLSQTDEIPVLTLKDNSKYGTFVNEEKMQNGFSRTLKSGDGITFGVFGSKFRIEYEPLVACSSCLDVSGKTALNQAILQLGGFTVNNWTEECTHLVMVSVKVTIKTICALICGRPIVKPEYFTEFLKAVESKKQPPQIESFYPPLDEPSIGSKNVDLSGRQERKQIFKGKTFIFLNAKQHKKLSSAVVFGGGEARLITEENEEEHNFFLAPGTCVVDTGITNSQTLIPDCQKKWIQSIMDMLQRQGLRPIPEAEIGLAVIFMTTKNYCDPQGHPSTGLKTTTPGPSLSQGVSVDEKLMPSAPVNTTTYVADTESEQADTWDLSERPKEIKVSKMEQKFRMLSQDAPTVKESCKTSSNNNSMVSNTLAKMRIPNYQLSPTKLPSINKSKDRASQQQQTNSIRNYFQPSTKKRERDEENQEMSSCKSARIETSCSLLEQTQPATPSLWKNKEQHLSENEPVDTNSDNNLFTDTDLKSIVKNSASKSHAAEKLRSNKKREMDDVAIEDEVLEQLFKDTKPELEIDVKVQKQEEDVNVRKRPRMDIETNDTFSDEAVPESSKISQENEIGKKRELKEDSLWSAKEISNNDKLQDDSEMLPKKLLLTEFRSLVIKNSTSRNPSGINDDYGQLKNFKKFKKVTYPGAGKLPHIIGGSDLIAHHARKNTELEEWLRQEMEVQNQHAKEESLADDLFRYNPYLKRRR
UniProt Q99747: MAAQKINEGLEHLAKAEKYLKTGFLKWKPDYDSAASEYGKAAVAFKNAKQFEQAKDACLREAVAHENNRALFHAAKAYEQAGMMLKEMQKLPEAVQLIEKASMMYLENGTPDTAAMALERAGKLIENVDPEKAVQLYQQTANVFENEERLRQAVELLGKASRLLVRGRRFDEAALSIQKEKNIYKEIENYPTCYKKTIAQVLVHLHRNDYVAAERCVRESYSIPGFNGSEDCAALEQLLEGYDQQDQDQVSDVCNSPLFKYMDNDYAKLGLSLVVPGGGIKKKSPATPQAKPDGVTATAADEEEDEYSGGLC
UniProt O00159, whole entry, looked up: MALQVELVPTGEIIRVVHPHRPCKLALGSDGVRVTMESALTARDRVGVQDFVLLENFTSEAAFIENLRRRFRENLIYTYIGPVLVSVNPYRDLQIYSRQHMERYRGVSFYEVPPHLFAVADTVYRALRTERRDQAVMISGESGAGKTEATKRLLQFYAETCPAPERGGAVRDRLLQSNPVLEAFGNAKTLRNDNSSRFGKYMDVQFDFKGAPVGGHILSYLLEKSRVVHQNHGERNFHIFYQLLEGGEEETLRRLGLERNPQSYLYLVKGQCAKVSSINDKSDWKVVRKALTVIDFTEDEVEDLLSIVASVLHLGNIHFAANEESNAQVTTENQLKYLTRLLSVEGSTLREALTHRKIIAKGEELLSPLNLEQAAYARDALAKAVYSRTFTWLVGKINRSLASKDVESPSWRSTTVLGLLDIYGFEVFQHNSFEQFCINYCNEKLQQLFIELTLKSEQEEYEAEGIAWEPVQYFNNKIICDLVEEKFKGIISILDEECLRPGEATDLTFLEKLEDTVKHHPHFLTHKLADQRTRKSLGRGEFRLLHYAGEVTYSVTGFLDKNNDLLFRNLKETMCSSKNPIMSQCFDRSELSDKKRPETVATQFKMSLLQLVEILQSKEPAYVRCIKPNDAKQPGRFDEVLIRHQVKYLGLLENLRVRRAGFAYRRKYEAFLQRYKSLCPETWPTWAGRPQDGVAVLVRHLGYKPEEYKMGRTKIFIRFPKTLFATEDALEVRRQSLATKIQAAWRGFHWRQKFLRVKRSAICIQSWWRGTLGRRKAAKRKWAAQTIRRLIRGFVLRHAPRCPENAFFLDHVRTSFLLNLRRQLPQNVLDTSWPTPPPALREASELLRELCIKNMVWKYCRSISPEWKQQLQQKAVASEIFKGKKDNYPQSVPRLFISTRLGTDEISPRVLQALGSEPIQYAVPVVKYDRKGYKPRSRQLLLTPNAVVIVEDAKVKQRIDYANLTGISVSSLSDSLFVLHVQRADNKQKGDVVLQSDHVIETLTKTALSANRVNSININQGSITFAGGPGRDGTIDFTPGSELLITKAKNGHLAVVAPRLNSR

How the values were obtained:
Assay in all cases: log2 fold change, soluble protein after heating vs DMSO (PISA); higher = thermal stabilisation; K562 lysate, 10 uM; active = over 0.2 and 3.5 SD of the protein, either way, in both replicates (recomputed)
[1] = compound: CN1CC[C@H](c2c(O)cc(O)c3c(=O)cc(-c4ccccc4Cl)oc23)[C@H](O)C1 [alvocidib]
In short: (§1)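 Values give the log-two fold change in thermal stability against solvent controls, from duplicates. Crude K562 extract at 1 mg/mL protein, made by dounce homogenisation in PBS pH 7.4 with 1 mM MgCl2, was treated with 10 μM compound for 30 min. After 3 min heating across 48°C-58°C, aliquots were pooled, adjusted to 0.5% NP-40 at 4°C and centrifuged at 21,000xg for 90 min. The supernatant was measured by TMTpro 16plex LC-MS/MS with channel sums equalised.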

[2] = compound: CN1CCc2c(c3ccccc3n2Cc2ccc(C(=O)NO)cc2)C1 [Tubastatin A]
In short: as §1

[3] = compound: CNC(=O)C1=CC=CC=C1NC2=NC(=NC=C2Cl)NC3=C(C=C(C=C3)N4CCOCC4)OC
In short: as §1

[4] = compound: CNC(=O)c1ccc(Nc2ncc(C(F)(F)F)c(NCc3nccnc3N(C)S(C)(=O)=O)n2)cc1 [defactinib]
In short: as §1

[5] = compound: CNc1nc(-c2ccc3c(N)n[nH]c3c2)cc(N2C[C@@H](C(=O)NC3CCCCC3)CC[C@H]2C)n1
In short: as §1

[6] = compound: COC(=O)N[C@@H](C)CNc1nccc(-c2cn(C(C)C)nc2-c2cc(Cl)cc(NS(C)(=O)=O)c2F)n1 [encorafenib]
In short: as §1

[7] = compound: COC(=O)[C@H](CCSC)NC(=O)C1=C(C=C(C=C1)NC[C@H](CS)N)C2=CC=CC=C2
In short: as §1

[8] = compound: COc1cc(Nc2ncc3c(n2)-c2ccc(Cl)cc2C(c2c(F)cccc2OC)=NC3)ccc1C(=O)O [alisertib]
In short: as §1

[9] = compound: COc1cc2nc(-c3cc(F)ccc3O)nc(N[C@@H]3CNC[C@H]3C(C)(C)O)c2cc1OC
In short: as §1

[10] = compound: COc1cc2ncnc(Nc3ccc(F)c(Cl)c3)c2cc1OCCCN1CCOCC1 [gefitinib]
In short: as §1

[11] = compound: CS(=O)(=O)CCNCc1ccc(-c2ccc3ncnc(Nc4ccc(OCc5cccc(F)c5)c(Cl)c4)c3c2)o1 [lapatinib]
In short: as §1

[12] = compound: CS(=O)(=O)N1CCN(Cc2cc3nc(-c4cccc5[nH]ncc45)nc(N4CCOCC4)c3s2)CC1 [pictilisib]
In short: as §1

[13] = compound: C[C@@H](Oc1cc(-c2cnn(C3CCNCC3)c2)cnc1N)c1c(Cl)ccc(F)c1Cl [crizotinib]
In short: as §1

[14] = compound: C[C@H](C1=CC=C(C=C1)C(=O)NC2=C3C=CNC3=NC=C2)N
In short: as §1

[15] = compound: C[C@H](Nc1ncnc2nc[nH]c12)c1cc2cccc(Cl)c2c(=O)n1-c1ccccc1 [duvelisib]
In short: as §1

[16] = compound: Cc1cc(Nc2cc(CN3CCOCC3)c3nc(C)c(Cc4ccc(Cl)cc4F)n3n2)n[nH]1 [gandotinib]
In short: as §1

[17] = compound: Cc1cc(Nc2cc(N3CCN(C)CC3)nc(Sc3ccc(NC(=O)C4CC4)cc3)n2)n[nH]1 [tozasertib]
In short: as §1

[18] = compound: Cc1ccc(-n2nc(C(C)(C)C)cc2NC(=O)Nc2ccc(OCCN3CCOCC3)c3ccccc23)cc1 [doramapimod]
In short: as §1

[19] = compound: Cc1ccc(NC(=O)c2ccc(CN3CC[C@H](N(C)C)C3)c(C(F)(F)F)c2)cc1Nc1nccc(-c2cncnc2)n1 [bafetinib]
In short: as §1

[20] = compound: Cc1cccc(CC(=O)N2CCc3c2ccc(-c2cn(C)c4ncnc(N)c24)c3F)n1
In short: as §1

Measured: log2 fold change

NAA50 (UniProt Q9GZZ1)
inactive: [1] 0.03 | [2] -0.062 | [3] 0.012 | [4] -0.017 | [5] 0.03 | [6] -0.066 | [7] -0.002 | [8] -0.012 | [9] 0.017 | [10] -0.038 | [11] -0.013 | [12] -0.004 | [13] -0.038 | [14] -0.018 | [15] 0.011 | [16] -0.007 | [17] -0.028 | [18] 0.013 | [19] 0.042 | [20] -0.005

NAA30 (UniProt Q147X3)
inactive: [1] -0.03 | [2] 0.051 | [3] -0.023 | [4] 0.002 | [5] 0.023 | [6] -0.032 | [7] 0.008 | [8] 0.039 | [9] -0.066 | [10] 0.015 | [11] -0.021 | [12] -0.028 | [13] -0.01 | [14] -0.025 | [15] -0.037 | [16] 0.012 | [17] 0.015 | [18] -0.028 | [19] 0.042 | [20] 0.06

NAPA (UniProt P54920)
inactive: [1] 0.001 | [2] 0.035 | [3] 0.01 | [4] 0.001 | [5] 0.048 | [6] -0.005 | [7] -0.076 | [8] -0.009 | [9] 0.026 | [10] -0.006 | [11] 0.008 | [12] 0.006 | [13] -0.003 | [14] 0.032 | [15] 0.033 | [16] -0.061 | [17] -0.006 | [18] 0.014 | [19] 0.001 | [20] -0.045

NAGLU (UniProt P54802)
inactive: [1] 0.059 | [2] -0.011 | [3] 0.018 | [4] -0.018 | [5] 0.058 | [6] -0.059 | [7] -0.022 | [8] -0.032 | [9] 0.061 | [10] 0.078 | [11] 0.032 | [12] -0.026 | [13] -0.09 | [14] 0.013 | [15] -0.003 | [16] 0.002 | [17] 0.022 | [18] 0.053 | [19] 0.031 | [20] -0.012

MYO1D (UniProt O94832)
inactive: [1] 0.026 | [2] -0.091 | [3] -0.006 | [4] 0.048 | [5] -0.008 | [6] 0.058 | [7] -0.012 | [8] -0.019 | [9] 0.012 | [10] -0.016 | [11] 0.014 | [12] -0.051 | [13] -0.035 | [14] 0.016 | [15] -0.028 | [16] -0.072 | [17] 0.01 | [18] 0.011 | [19] -0.041 | [20] -0.005

NCKIPSD (UniProt Q9NZQ3)
inactive: [1] 0.015 | [2] -0.12 | [3] -0.015 | [4] 0.059 | [5] -0.048 | [6] 0.072 | [7] -0.007 | [8] 0.024 | [9] 0.013 | [10] 0.021 | [11] -0.049 | [12] -0.033 | [13] 0.031 | [14] 0.013 | [15] 0.058 | [16] -0.174 | [17] 0.041 | [18] 0.037 | [19] -0.11 | [20] 0.059

Looked up one by one from above, 2 records:
NCKIPSD (UniProt Q9NZQ3)
inactive: [1] 0.015 | [2] -0.12 | [3] -0.015 | [4] 0.059 | [5] -0.048 | [6] 0.072 | [7] -0.007 | [8] 0.024 | [9] 0.013 | [10] 0.021 | [11] -0.049 | [12] -0.033 | [13] 0.031 | [14] 0.013 | [15] 0.058 | [16] -0.174 | [17] 0.041 | [18] 0.037 | [19] -0.11 | [20] 0.059

NAPA (UniProt P54920)
inactive: [1] 0.001 | [2] 0.035 | [3] 0.01 | [4] 0.001 | [5] 0.048 | [6] -0.005 | [7] -0.076 | [8] -0.009 | [9] 0.026 | [10] -0.006 | [11] 0.008 | [12] 0.006 | [13] -0.003 | [14] 0.032 | [15] 0.033 | [16] -0.061 | [17] -0.006 | [18] 0.014 | [19] 0.001 | [20] -0.045

(continued)

MYO6 isoform 6 (UniProt Q9UM54)
inactive: [1] -0.011 | [2] -0.043 | [3] 0.033 | [4] 0.032 | [5] 0.096 | [6] 0.027 | [7] -0.118 | [8] -0.01 | [9] 0.02 | [10] 0.017 | [11] -0.001 | [12] 0.006 | [13] -0.042 | [14] -0.02 | [15] 0.031 | [16] -0.02 | [17] 0.025 | [18] 0.01 | [19] -0.056 | [20] -0.004

NARF (UniProt Q9UHQ1)
inactive: [1] 0.001 | [2] 0.011 | [3] 0.031 | [4] -0.015 | [5] -0.014 | [6] 0.047 | [7] 0.003 | [8] -0.021 | [9] -0.019 | [10] -0.007 | [11] -0.027 | [12] 0.01 | [13] 0.032 | [14] 0.001 | [15] 0.029 | [16] 0.008 | [17] 0.02 | [18] 0.012 | [19] -0.008 | [20] -0.04

MYBBP1A isoform 2 (UniProt Q9BQG0)
inactive: [1] 0.051 | [2] -0.089 | [3] -0.008 | [4] -0.044 | [5] 0.012 | [6] 0.027 | [7] 0.004 | [8] 0.007 | [9] -0.011 | [10] -0.011 | [11] -0.027 | [12] -0.057 | [13] -0.077 | [14] 0.031 | [15] -0.02 | [16] -0.102 | [17] -0.01 | [18] -0.014 | [19] -0.068 | [20] -0.01

NAP1L5 (UniProt Q96NT1)
inactive: [1] 0.161 | [2] -0.039 | [3] 0.008 | [4] -0.032 | [5] -0.082 | [6] 0.01 | [7] -0.047 | [8] 0.021 | [9] -0.039 | [10] 0.02 | [11] 0.079 | [12] 0.017 | [13] 0.094 | [15] 0.099 | [16] -0.299 | [17] -0.016 | [18] -0.171 | [19] 0.076 | [20] -0.174
active: [14] 0.616

NCOA2 (UniProt Q15596)
inactive: [1] 0.009 | [2] 0.038 | [3] 0.02 | [4] -0.002 | [5] 0.094 | [6] 0.072 | [7] 0.013 | [8] -0.09 | [9] 0.146 | [10] -0.104 | [11] -0.113 | [12] -0.174 | [13] -0.062 | [14] -0.028 | [15] 0.05 | [16] 0 | [17] 0.062 | [18] -0.029 | [19] -0.007 | [20] -0.038

NAT1 (UniProt P18440)
inactive: [1] 0.038 | [2] -0.087 | [3] -0.025 | [4] 0.05 | [5] -0.046 | [6] -0.02 | [7] 0.006 | [8] 0.035 | [9] 0.039 | [10] 0.031 | [11] 0.026 | [12] 0.111 | [13] -0.227 | [14] -0.089 | [15] 0.006 | [16] 0.004 | [17] -0.048 | [18] 0.058 | [19] 0.006 | [20] 0.083

NBN (UniProt O60934)
inactive: [1] 0.008 | [2] -0.041 | [3] -0.006 | [4] -0.029 | [5] 0.014 | [6] 0.022 | [7] 0.048 | [8] -0.009 | [9] 0.018 | [10] -0.061 | [11] 0.008 | [12] -0.006 | [13] -0.028 | [14] 0.033 | [15] -0.006 | [16] -0.05 | [17] 0.032 | [18] 0.001 | [19] -0.016 | [20] -0.026

MYD88 isoform 6 (UniProt Q99836)
inactive: [1] 0 | [2] -0.216 | [3] -0.006 | [4] 0.013 | [5] 0.001 | [6] 0.003 | [7] -0.003 | [8] 0.021 | [9] -0.005 | [10] -0.039 | [11] 0.014 | [12] -0.006 | [13] -0.007 | [14] -0.032 | [15] 0.03 | [16] -0.009 | [17] 0.068 | [18] 0.019 | [19] -0.018 | [20] 0

NAPG (UniProt Q99747)
inactive: [1] 0.01 | [2] -0.01 | [3] 0.005 | [4] -0.025 | [5] 0.011 | [6] -0.005 | [7] -0.009 | [8] 0.036 | [9] 0.021 | [10] -0.001 | [11] -0.004 | [12] 0.001 | [13] 0.016 | [14] 0.024 | [15] 0.021 | [16] -0.009 | [17] 0.009 | [18] -0.012 | [19] 0.039 | [20] -0.049

MYO1C (UniProt O00159)
inactive: [1] 0.029 | [2] -0.114 | [3] -0.057 | [4] 0.052 | [5] -0.045 | [6] 0.076 | [7] 0.049 | [8] 0.008 | [9] 0.01 | [10] -0.02 | [11] -0.078 | [12] 0.007 | [13] -0.09 | [14] 0.027 | [15] 0.075 | [16] -0.036 | [17] 0.014 | [18] 0.065 | [19] 0.068 | [20] -0.023
